Measured data: PubChem BioAssay AID1259254 (NCATS, 2017)
In all, the deposit lists about 59,000 reagents; this is a part drawn at random. In the full data, about 1,550 (2.6%) are marked active. 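G2 share is only a proxy for re-replication; each gene was hit by three separate siRNAs, and active genes were retested.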 Entries without a mark were called inactive. The numbers tell different reagents against one gene apart. Further read-outs or replicates are left out here. The record does not give: the amount of reagent.

- Assay: 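Finding genes that stop cells copying their DNA twice in one cycle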 (primary screen)
- Cell system: human HCT116 colorectal cancer cells
- Reagent: single siRNA against human genes
- Duration: 3 days
- Measured: 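Nuclei stained with Hoechst and imaged; cell-cycle phase assigned by DNA content; G2 share scaled per plate, non-targeting siRNA 0%, GMNN siRNA 100%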
- Scale: G2 robust z-score: higher = more G2 cells, more excess DNA replication
- Call rule: 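Active siRNAs have a G2 robust z of 5 or more median absolute deviations over the median, which in these data means about 38% or higher of GMNN control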

How did the screen score GFRA2 (GDNF family receptor alpha 2) #1?
G2 robust z-score: -0.286

With GFRA2 (GDNF family receptor alpha 2) #2, how do the results read?
G2 robust z-score: -0.171

For GFRA2 (GDNF family receptor alpha 2) #3, how do the results read?
G2 robust z-score: 2.22

With PTPA (protein phosphatase 2 phosphatase activator) #1, what does the deposit list?
G2 robust z-score: 0.38

What is on record for PTPA (protein phosphatase 2 phosphatase activator) #2?
G2 robust z-score: -0.404

With PTPA (protein phosphatase 2 phosphatase activator) #3, what does the deposit list?
G2 robust z-score: -0.576

For RCC1 (regulator of chromosome condensation 1) #1, what was measured?
G2 robust z-score: -1.16

What is on record for RCC1 (regulator of chromosome condensation 1) #2?
G2 robust z-score: 1.25

What did the screen give for RCC1 (regulator of chromosome condensation 1) #3?
G2 robust z-score: -0.58

Reprinted from the entries so far for reference:
GFRA2 (GDNF family receptor alpha 2) #1 — G2 robust z-score = -0.286
GFRA2 (GDNF family receptor alpha 2) #2 — G2 robust z-score = -0.171
GFRA2 (GDNF family receptor alpha 2) #3 — G2 robust z-score = 2.22
PTPA (protein phosphatase 2 phosphatase activator) #1 — G2 robust z-score = 0.38

Additional records follow.
With LY9 (lymphocyte antigen 9) #1, how do the results read?
G2 robust z-score: 2.06

How did the screen score LY9 (lymphocyte antigen 9) #2?
G2 robust z-score: -0.761

For LY9 (lymphocyte antigen 9) #3, what was measured?
G2 robust z-score: -1.06

With WWP1 (WW domain containing E3 ubiquitin protein ligase 1) #1, what was measured?
G2 robust z-score: 2.87

With WWP1 (WW domain containing E3 ubiquitin protein ligase 1) #2, what does the deposit list?
G2 robust z-score: 2.88

What did the screen give for WWP1 (WW domain containing E3 ubiquitin protein ligase 1) #3?
G2 robust z-score: -1.29

For FANCG (FA complementation group G) #1, what was measured?
G2 robust z-score: 1.7

What did the screen give for FANCG (FA complementation group G) #2?
G2 robust z-score: 0.745

Which result is listed for FANCG (FA complementation group G) #3?
G2 robust z-score: -0.647

Which result is listed for SOAT2 (sterol O-acyltransferase 2) #1?
G2 robust z-score: -0.467

What is on record for SOAT2 (sterol O-acyltransferase 2) #2?
G2 robust z-score: -1.65

With SOAT2 (sterol O-acyltransferase 2) #3, how do the results read?
G2 robust z-score: -0.417

Which result is listed for HMX2 (H6 family homeobox 2) #1?
G2 robust z-score: 0.658

Which result is listed for HMX2 (H6 family homeobox 2) #2?
G2 robust z-score: 0.43

With HMX2 (H6 family homeobox 2) #3, what does the deposit list?
G2 robust z-score: -0.0625
